PubChem BioAssay AID652243 – Drosophila RNAi Screening Center | 2013

Assay: 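Knock-downs that decrease or increase androgen receptor reporter signal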 (primary screen)
Cells: Drosophila S2R+ cells
Knock-down reagent: long dsRNA against Drosophila genes
Time to read-out: 72 h (48 h, then 24 h hormone)
Challenge: synthetic androgen R1881 at 10 nM for 24 h
Measurement: 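Per-well raw luminescence of the androgen-driven firefly reporter and of the Renilla control, two replicates each, without normalisation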
Reading the numbers: firefly reporter light: higher = more light from androgen-responsive reporter; Renilla control light: higher = more constitutive control signal (cell number, transfection)
Rule for the call: 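Hit when the log firefly-to-Renilla ratio dropped or increased by a fixed fold versus the mean of GFP or LacZ controls across duplicate plates; lowering cut given as 1.5 and as 3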
Calls: active = hit: reporter lowered or raised; inactive = no hit
In all, the deposit lists about 24,000 reagents; this is a random part of those that have a named target and a result. In the full data, 246 (1%) were called active. 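Plates not normalised; calls are printed but the firefly/Renilla ratio behind them is not deposited; fold cut for lowering reported inconsistently.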 Raw values are not corrected between plates. Names joined by + are all predicted targets of the reagent. Not stated in the record: the amount of reagent.

gene | DRSC id | firefly reporter light, replicate 1 | firefly reporter light, replicate 2 | Renilla control light, replicate 1 | Renilla control light, replicate 2 | call
CG18735 | DRSC04312 | 2.13e5 | 3.00e5 | 2.08e6 | 1.70e6 | inactive
CG18735 | DRSC24372 | 6.13e5 | 5.82e5 | 8.52e5 | 7.39e5 | inactive
CheA29a (Chemosensory protein A 29a) | DRSC21486 | 9.78e5 | 1.08e6 | 2.68e6 | 2.03e6 | inactive
Dys + snoRNA:Me18S-A1374 | DRSC16232 | 35078 | 49636 | 8.56e5 | 1.35e6 | inactive
TfIIS (RNA polymerase II elongation factor) | DRSC03455 | 4.67e5 | 5.94e5 | 1.25e6 | 1.55e6 | inactive
TfIIS (RNA polymerase II elongation factor) | DRSC24533 | 1.58e5 | 2.14e5 | 7.47e5 | 5.36e5 | inactive
CG32845 | DRSC07867 | 88398 | 2.00e5 | 3.40e5 | 3.80e5 | inactive
CG32845 | DRSC28003 | 9.27e5 | 7.83e5 | 1.67e6 | 1.69e6 | inactive
Erk7 (Extracellularly regulated kinase 7) | DRSC18127 | 3.41e5 | 2.73e5 | 3.39e6 | 3.39e6 | inactive
Erk7 (Extracellularly regulated kinase 7) | DRSC18227 | 3.62e5 | 5.56e5 | 2.30e6 | 2.57e6 | inactive
Erk7 (Extracellularly regulated kinase 7) | DRSC21895 | 1.11e6 | 1.02e6 | 1.57e6 | 1.40e6 | inactive
CG13575 | DRSC04211 | 2.38e5 | 3.27e5 | 2.38e6 | 2.45e6 | inactive
CG13575 | DRSC22851 | 3.29e5 | 6.79e5 | 9.45e5 | 1.76e6 | inactive
CG18530 | DRSC15341 | 1.52e5 | 2.59e5 | 2.44e6 | 2.99e6 | inactive
DIP-eta (Dpr-interacting protein eta) | DRSC02342 | 2.15e5 | 1.79e5 | 1.90e6 | 1.34e6 | inactive
CG1958 | DRSC18196 | 2.62e5 | 4.30e5 | 2.74e6 | 2.94e6 | inactive
CG1958 | DRSC25599 | 7.21e5 | 7.96e5 | 7.77e5 | 8.04e5 | inactive
Taf8 (TBP-associated factor 8) | DRSC20363 | 2.64e5 | 2.56e5 | 2.25e6 | 2.11e6 | inactive
CG13494 | DRSC04139 | 4.40e5 | 2.95e5 | 3.04e6 | 1.97e6 | inactive
CG13494 | DRSC26588 | 3.87e5 | 2.85e5 | 6.08e5 | 7.10e5 | inactive
Ir85a (Ionotropic receptor 85a) | DRSC14382 | 99436 | 99668 | 2.21e6 | 1.58e6 | inactive
Ir85a (Ionotropic receptor 85a) | DRSC29077 | 4.95e5 | 3.81e5 | 1.32e6 | 1.17e6 | inactive
Arp6 (Actin-related protein 6) | DRSC19326 | 1.16e5 | 1.45e5 | 1.06e6 | 1.01e6 | inactive
alrm (astrocytic leucine-rich repeat molecule) | DRSC14436 | 1.37e5 | 1.75e5 | 1.61e6 | 1.90e6 | inactive

3 entries from above, set out differently:
| gene | DRSC id | firefly reporter light, replicate 1 | firefly reporter light, replicate 2 | Renilla control light, replicate 1 | Renilla control light, replicate 2 | call |
| --- | --- | --- | --- | --- | --- | --- |
| Taf8 (TBP-associated factor 8) | DRSC20363 | 2.64e5 | 2.56e5 | 2.25e6 | 2.11e6 | inactive |
| CG13494 | DRSC04139 | 4.40e5 | 2.95e5 | 3.04e6 | 1.97e6 | inactive |
| CG13494 | DRSC26588 | 3.87e5 | 2.85e5 | 6.08e5 | 7.10e5 | inactive |
